Assay results from article doi:10.1101/2020.09.12.286559 (bioRxiv, 2020).

Legend:
TRF1 = biological target: T1, TRF1 (UniProt P54274); experiment: TIRFM DNA-DNA bridging; conditions: transient pairing by TRF1 alone
T1 sequence (looked up, limits assumed): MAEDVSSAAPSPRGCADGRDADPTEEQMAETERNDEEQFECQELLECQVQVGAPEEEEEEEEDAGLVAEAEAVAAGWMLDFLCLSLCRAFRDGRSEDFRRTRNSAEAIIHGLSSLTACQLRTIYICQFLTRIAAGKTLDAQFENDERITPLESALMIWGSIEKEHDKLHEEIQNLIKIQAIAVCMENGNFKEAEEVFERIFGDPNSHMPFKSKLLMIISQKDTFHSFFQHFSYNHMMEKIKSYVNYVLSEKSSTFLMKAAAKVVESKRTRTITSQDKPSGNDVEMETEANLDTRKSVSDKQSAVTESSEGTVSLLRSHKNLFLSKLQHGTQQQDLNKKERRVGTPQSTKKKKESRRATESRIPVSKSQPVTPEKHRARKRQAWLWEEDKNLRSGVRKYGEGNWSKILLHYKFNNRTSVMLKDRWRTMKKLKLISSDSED

TRF1 + TIN2S = experiment: TIRFM DNA-DNA bridging; conditions: TIN2 isoform not fully stated

Sequence	binding result (TRF1; partner DNA N3 (5 nM))	binding result (TRF1 + TIN2S; partner DNA N3 (5 nM))	binding result (TRF1; partner DNA N2 on surface)	binding result (TRF1 + TIN2S; partner DNA N2 on surface)
TCTGTAGTGTATTAGGGTTAGGGTTAGGGTTAGGGTTAGGGTTAGGGATGTAGGTATGTCACAGCATGA (double strand) [Cy5/biotin telomeric DNA, 6 TTAGGG (69 bp)]	binds	binds	–	–
TCTGTAGTGTATTAGGGTTAGGGTTAGGGTTAGGGTTAGGGTTAGGGATGTAGGTATGT (double strand) [Cy3 telomeric DNA, 6 TTAGGG (59 bp)]	–	–	binds	binds

The exact form of at least one protein or probe is not confirmed. At least one verdict was read from the data and is not stated in words by the source. For some of these results: Protein sequences can lack the tags named with them.
